Laboratory results as given in patent US20110040077.

By UniProt entry, the sequences of proteins in these tests, tags left out. Where a name states a change or a piece, a line headed by the entry shows the natural chain unless it says otherwise.
UniProt O29494: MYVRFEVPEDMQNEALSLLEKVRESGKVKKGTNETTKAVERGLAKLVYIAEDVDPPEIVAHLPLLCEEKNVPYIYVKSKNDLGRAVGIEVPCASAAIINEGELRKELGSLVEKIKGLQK

Key:
[1] = biological target: L7Ae (Archaeoglobus fulgidus) (UniProt O29494); assay: competition with a labelled probe; details: Box C/D competitor restores translation of L7-UTR2 inhibited by L7Ae; purified recombinant protein; protein details: His tag (pET-28b+, NdeI/XhoI); label: 32P
[2] = biological target: L7Ae (Archaeoglobus fulgidus) (UniProt O29494); assay: activity assay; details: L7Ae restores translation of ON switch mRNA blocked by antisence RNA (PURE system); purified recombinant protein; protein details: His tag (pET-28b+, NdeI/XhoI)

Sequence | functional effect [1] | functional effect [2]
GGCCAGAGUGGGCGUGAUGCAUGUCUAGGAAACUAGACAUGCUGACCCACUCUGGCC [Box C/D] | active | –
GGUGGGCGUGAUGCGAAAGCUGACCCACC [antisence RNA (contains Box C/D mini)] | – | active
